Data reported in PMC10873654.
For some of these results: Negatives hold for the conditions tested. Tags and fusion partners may be left off the protein sequences shown.

What was measured:
Assay in all cases: EMSA
[1] = tested on: T1, TrsA (Lactococcus plasmid pUC11B); settings: 250 nM protein; 20 mM Tris-HCl (pH not stated), 10 mM MgCl2, 0.5 mM DTT, 1 mM EDTA, 100 mM KCl, 10% glycerol, poly[d(I-C)], 0.1 pmol DNA in 25 uL, 30 min at 30 C; 6% PAA gel; recombinant protein; residues 1-673; protein details: C-terminal His6; label: IRD700; probe letters rebuilt from the primers and the genome
T1 sequence (looked up): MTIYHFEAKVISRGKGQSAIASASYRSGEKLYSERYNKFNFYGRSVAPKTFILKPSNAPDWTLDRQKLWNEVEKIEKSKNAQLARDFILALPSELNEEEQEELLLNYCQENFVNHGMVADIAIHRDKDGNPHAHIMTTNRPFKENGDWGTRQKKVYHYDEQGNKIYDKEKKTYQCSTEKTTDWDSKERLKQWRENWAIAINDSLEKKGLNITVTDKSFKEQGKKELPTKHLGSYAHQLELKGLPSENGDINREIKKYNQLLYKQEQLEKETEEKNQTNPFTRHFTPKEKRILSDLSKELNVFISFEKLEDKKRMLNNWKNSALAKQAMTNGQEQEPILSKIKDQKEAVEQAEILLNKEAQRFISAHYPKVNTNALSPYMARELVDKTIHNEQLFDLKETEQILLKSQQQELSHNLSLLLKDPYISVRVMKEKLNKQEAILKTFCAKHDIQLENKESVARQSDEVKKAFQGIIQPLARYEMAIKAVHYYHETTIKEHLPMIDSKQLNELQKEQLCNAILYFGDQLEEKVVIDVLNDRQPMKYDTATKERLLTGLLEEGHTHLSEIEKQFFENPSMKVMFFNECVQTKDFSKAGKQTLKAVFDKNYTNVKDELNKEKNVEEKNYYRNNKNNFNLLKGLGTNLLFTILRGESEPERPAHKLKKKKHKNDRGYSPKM

[2] = tested on: T2, TraR (Lactococcus plasmid pNP40); settings: 250 nM protein; 20 mM Tris-HCl (pH not stated), 10 mM MgCl2, 0.5 mM DTT, 1 mM EDTA, 100 mM KCl, 10% glycerol, poly[d(I-C)], 0.1 pmol DNA in 25 uL, 30 min at 30 C; 6% PAA gel; recombinant protein; residues 1-73; protein details: N-terminal His6; label: IRD700; probe letters rebuilt from the primers and the genome
T2 sequence (looked up): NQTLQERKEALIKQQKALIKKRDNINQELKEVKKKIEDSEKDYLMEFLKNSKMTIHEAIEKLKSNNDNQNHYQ

[3] = tested on: T3, TraAb (Lactococcus plasmid pNP40); settings: 250 nM protein; 20 mM Tris-HCl (pH not stated), 10 mM MgCl2, 0.5 mM DTT, 1 mM EDTA, 100 mM KCl, 10% glycerol, poly[d(I-C)], 0.1 pmol DNA in 25 uL, 30 min at 30 C; 6% PAA gel; recombinant protein; residues 1-505; protein details: C-terminal His6; label: IRD700; probe letters rebuilt from the primers and the genome
T3 sequence (looked up): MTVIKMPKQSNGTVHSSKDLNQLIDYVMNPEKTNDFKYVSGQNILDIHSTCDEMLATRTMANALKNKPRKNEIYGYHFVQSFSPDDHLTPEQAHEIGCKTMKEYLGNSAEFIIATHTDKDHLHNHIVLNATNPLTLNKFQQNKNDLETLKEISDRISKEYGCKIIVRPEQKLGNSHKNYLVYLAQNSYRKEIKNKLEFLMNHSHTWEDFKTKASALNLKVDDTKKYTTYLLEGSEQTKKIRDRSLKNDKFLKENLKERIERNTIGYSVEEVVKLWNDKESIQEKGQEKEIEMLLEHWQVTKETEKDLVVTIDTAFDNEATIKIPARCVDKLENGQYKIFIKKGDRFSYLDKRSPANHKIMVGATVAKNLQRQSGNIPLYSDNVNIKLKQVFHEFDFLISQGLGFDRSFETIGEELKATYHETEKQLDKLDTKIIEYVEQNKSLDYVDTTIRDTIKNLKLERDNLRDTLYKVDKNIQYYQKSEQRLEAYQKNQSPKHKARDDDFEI

| Sequence | binding result [1] | other results |
| --- | --- | --- |
| GAACAGTTAGAACGCTATAAAGAAAGAATCACAGAGTATCACGCTTATCGTCTTAAACAGCAAGAGGAAACAAAGCAGGCGGAAGATACAGCTTTTCAAACACAGGAACAAGCAGACAAAAAAGAAGCTTCTAAAGCCAACGAAACCATTACTGACGAACAAAAAGCTTATCTAAAAAAACGCGAAGCTTTACTTGCAGATATGCAGGAGCAAGAACAAGAGCAAGCCCCTGAATTACCTAAAGAAAGTCCATTAGAAGTGGCAGAAGAAGACACGACAAAAGAACCTGAAATAGCTGAACAGTCAGATTTAATGTTTGAAAATGAAACAGAAAACCGTTCATATTCTGACTATTACGCTACCGAAGATTCCCCTACTGCAATTAATTTTGAAAGTGAAGATGAATAGAATGGAGTGTAAACAATGAAAAAAATAATAAGCGGAGTGCTTCTAATTGTCCTTGTATGTTTTGGATTGAGTGCTTGCGGTAAAAAAGAATTTAGTTTCAATGGAGAGTGGAATTTAAAAG (double strand) [P22 (Utrs22) fragment] | no binding | – |
| CCTACTTTAACAGTTGAACTAGAAAGTACATCAGTTACATATTTCCAAGCATTAGTGTTAAAATCGGCTTCTTGTCCTCCTAAAACTTTAAATAAGTCCATAAAATGAACCTCCTAATTTCTTTTGCTAATTATTAAAACAAAACATAACTAAGGCAACAACAACTAACAAAATGATGATACTTACTAAAATCGGTGCTAATAGTGATTTAAACACAAATAACATCAGTATCAAATTCAAAATACCAGTAATTAAAGCTACCGAAATGTTTCCTTGTTTGAATAAAACAACAACAACACCAATAAGCAAAGCTAATAATACTAGTCCGCCTAACAGATACCCCATAATAGACGAATTTTGTTCCGAAAAAACGATTTTAAAGGCTCTTACAACCGCTCCGTCCGATGATGAATAGTATTCTTTCAGCTTTTCATTTAACTTATCCAAGTGTCCTAAATAATAAAACCATGCAATAACTAGAACAATTTCTCCAATCAGGACACCCTTTGCTTCTGATATGTCTTCT (double strand) [PL (UtraL) fragment] | – | binding result [2]: binds |
| GATACCTGTTTCTTTCATCATCAATTTAATTCTTTCGTTCTCTTTTTCATTTACGAAGAACCTTTTTAAAATATTTCTTTCACGATTTTTGATTTTTTTCATCTTGTCAACCTCTCAAATTTCTGTCAACTCTAAAAGCTCAAAATAGGGGGTTAGTGTCTTTAGCGAGCTTAGTAAGTGTAGCCACACTTACAGTAAAAAGTATTCATCTTTCACTCACAAAAGCTAAAATTTTCAATTTTATTTTTGTTCGTTTCAGACGAATCTTTTTATTTTTGGTGGTGTCCCCCAATCCCCCTTTTTTTTAAAATTAATTCTCATAATTTATATTTTTTGGAAAATTAATTTCAAATTCTTTTAAGACATCTTCGTATAAATCTTTGACTTCAAAACACAAATTTTTAACTTCCTCTTCGGTCAAAGTTTGAACATATTTTTTTGCGTCAATGTAATGATTTAATTCTTCTTTATCAATTAAATCTAATTGTTCCTGTATCATTTCTTCT (double strand) [PAa (UtraAa) fragment] | – | binding result [3]: binds |
| GCGTTCACTGTATAATTTTTCCCCACTACGATAAGAGGCGCTAGCAATTGCAGACTGTCCTTTCCCTCTTGAAATAACTTTAGCTTCAAAATGATAAATAGTCATAAGAAGTGTTCTCCTTTCTTTTTTATTTTTTACACGAGCAAAGCGAGTTTTTTCAACACGTTCAATCTGAAAGATTGGCAATTTATACCATGATTTTTCATGGTATATAAGTGCGCCCTTATATCTTATAGGGATATTTTACCACTTTTTATTAGTATTTTGTACTTATCTGTCTTTTGCCTTATTTTGTTGCATTTGATAGAATATAATTATCAATAAGTGTTTCAAATAAGAAAGGACTAGGAAGTTATGGCAAAGAAAAAAAGCTTGGAAGATTTACAAAAAGAATTAGCAAAGAAACAAGAAGACATTAAAATTATCAATAGAAAAATTGGACAACAAAAACGATACATTAATACTCGTATTGGAGAAG (double strand) [PA (UtrsA) fragment] | binds | – |
| GTGTCTTTCACGCTGAATGGGTTTATATTCAAGTATTTAGTGTGTGGGTAGCTATTTCATATTTAACAGTCGATAATAACATGATTAACGACTATTTAAAACGTGTCGGTTATGAATTTACAAATTTAATCATTGCTGTTTCCGCTATGGCGGGTATTATCGAACTTCTAGCCAAAAAGAATATCGGTGCAGGTGATGTGATGTTGATAATTGGTTTAGGTTTTGTCGAAATTAAAGGAGCAGGCATTGCCAACGTTATTTTTGGTGGACGACCAAGTGGCGGTTTGATGAGAGGTATCTCTTCTACTGTTTCCAACGCTACTCGAATGTTTAAAAAATAAAAAAGTCTTGCATGTAAAAAGGCAGATACACGCAAGACAACAGAAAGGACATACCGAAGTATGCACATTGTTATTTTAGCAGAAAAACCCAATCAAGCCAAAGATATTTCACAGATATTCAAGAATGTGAAACGAAATAATGGCTATTATGAAATTACAGACAATGATTTTTTCCCAAACG (double strand) [P24 (Utrs24) fragment] | no binding | – |
| CGGTTGTCTTTTTGGATAATGTTTTTGTTATCGGCTTCAAGAAATATGTTGTTATCTTCAAGCACTTTTTTTACGTCTATAGTATACAAGAATTTTTTAATTGACATGCGTTATCCCTCATTTTTAAACAAAAAAAGGTATCTTCAACTGAAAAAATAATCAGAAGAAGATACCTTAGTTTGAAGATCCATCACGTCGCTTAGTTTTTTAATGTGGCTTAGACGTTTCAACCACTCAACACGTCGCTTAGTTTTTTAATGTGGCTTAGACGTTTCAACCACTCATCTTTTTTTATCTTCTTCTATTATAAAATATTTAGTTGTAAAAAACAAGGTGAACGTTTAGTTCGGGTTTATTCGCTTTGTTCAAAGTCTTCATCAAAAAGAATTTCAGGATTATTAATTTCAGTGATTGGCTGTGTATCATAAAGGGCTTTATATTCGGGTAGTTTTTCACCTGCAATTGTTTGTATCCCTGTTTGCATGTATCCGATAAGAAAATAGTCAACGTTTGGC (double strand) [PAR (UtrsAR) fragment] | no binding | – |
| AAAATCCAAGCATGAAAGTTATGTTTTTCAATGAATGTGTCCAAACGAAAGATTTTAGTAAAGCAGGCAAGCAAACATTAAAAGCTGTGTTTGATAAAAACTATACGAATGTCAAAGATGAACTTAACAAAGAAAAAAATGTGGAAGAAAAAAACTACTACCGCAACAATAAAAATAATTTCAATCTGCTCAAAGGACTAGGAACAAATCTACTCTTTACGATTTTACGAGGGGAAAGCGAACCTGAACGTCCCGCTCATAAATTGAAGAAGAAAAAGCATAAAAACGATAGAGGATACAGTCCAAAAATGTAACATTCATAATTGTGGACACCTGTCCTCATTTGTTGTATTATATAAATAACTAATCAAGAAAGGAGGGCAAGAAATGTCGAAAGATAAGTGGTTTAGCTTGAATGAAGCTAGTAGAAGTATCGGAAAAAGCAAGGGATATTTTTCAACAACTAGGACAAGACATCCAGAATACTTTC (double strand) [PR (UtrsR) fragment] | binds | – |
